Laboratory results taken from patent US20020173452A1 (priority 2000, published 2002).

Experiment: general procedure: solution-phase peptide synthesis; N-(3-dimethylaminopropyl)-N'-ethylcarbodiimide hydrochloride / 1-hydroxy-1H-benz
Conditions: bis-trifluoroacetate, hydrochloride for some examples

Q: What does the source list for “20-O-[Prolyl-leucyl-glycyl-leucyl-histidyl-valyl]-camptothecin bis-trifluoro-acetate”?
A: step yield (coupling step): 77%; step yield (late stage modification step): 91%

Q: With “N-tert-butoxycarbonyl-prolyl-leucyl-glycyl-leucin” as the substance, how does the step yield (coupling step) read?
A: The step yield was 42%.
